Measurements published in PubChem BioAssay AID1347076 (National Center for Advancing Translational Sciences (NCATS), 2019).
In all, about 400,000 compounds went through this assay and about 13,000 (3.2%) were called active. The inconclusive results got no clear call from the source; some entries with a clear call stand among them for comparison. Calls come from the whole dose curve; as a rule, active = well fitted cell-killing curve with a large enough effect; inconclusive = small, poorly fitted or top-dose-only effect, or effect the other way; inactive = flat fitted curve, though single readings scatter. Potencies of inconclusive entries are doubtful fits and often do not repeat.

Experiment: qHTS assay for MDR1-selective chemotherapeutics: Primary screen using the drug-selected MDR subline cells KB-V1; note: nearly all actives have a fitted effect of over 60% in size
Details: KB-V1 MDR cells viability, CellTiter-Glo, 72 h; activity change, negative = cytotoxicity: at 46.1 µM (top of the series)
Outline: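 Cells of the MDR subline KB-V1 are plated, dosed with compound at multiple concentrations, and incubated 72 h at 37 degrees C; CellTiter-Glo is then added and luminescence read after 10 min.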
% is set by controls: 0 for no effect and ±100 for the full control effect; potency is the fitted concentration of half-maximal effect.

Q: For `CC1(C(=O)NC2CCCCCCC2)CCC(=O)N1CCN1CCOCC1` (stereo not drawn), which “activity change, negative = cytotoxicity” value is on record?
A: inactive: 1.02%

Q: Which Potency does the source give for `Cc1ccc2[nH]c(CSc3ccccc3)cc(=O)c2c1` here?
A: inconclusive: 29.1 µM [cytotoxic, single point]

Q: With `CCOc1ccc(OCC)c(NC(=O)CN(C)S(=O)(=O)c2ccc3[nH]c(=O)oc3c2)c1` as the molecule, how does the “activity change, negative = cytotoxicity” value read?
A: inactive: 22.9%

Q: Which Potency does the source give for `O=C(CCc1ccc(S(=O)(=O)N2CCOCC2)cc1)N1CCc2ccccc2C1` here?
A: inconclusive: 14.6 µM [cytotoxic, single point]

Q: For `COC(=O)Cn1c(=NC(=O)c2ccc(OC)c(OC)c2)sc2cc(OC)ccc21`, which “activity change, negative = cytotoxicity” value is on record?
A: inactive: 3.01%

Q: Which Potency does the source give for `CC(Sc1nnnn1-c1ccc(Cl)cc1)C(=O)NCC(=O)Nc1ccc(F)c(F)c1F` (stereo not drawn) here?
A: active: 16.4 µM

Q: For `CCOC(=O)c1cnn(-c2nc(OCC)cc(OCC)n2)c1C`, which Potency is on record?
A: inconclusive: 29.1 µM [cytotoxic, single point]

Q: For `Clc1cccc(COn2c(-c3ccc(Cl)cc3Cl)nc3ncccc32)c1`, which Potency is on record?
A: inconclusive: 29.1 µM [cytotoxic, single point]

Q: Which “activity change, negative = cytotoxicity” value does the source give for `C=CCn1cccc(C(=O)Nc2ccc(F)cc2)c1=O` here?
A: inactive: 10.1%

Q: Which Potency does the source give for `CCOC(=O)c1[nH]c(C)c(CCC(=O)N2CCN(c3cc(C)ccc3C)CC2)c1C` here?
A: inconclusive: 14.6 µM [cytotoxic, single point]

Q: Which Potency does the source give for `COc1ccccc1-c1nnc(NC(=O)c2ccc(S(=O)(=O)N(C)Cc3ccccc3)cc2)o1` here?
A: active: 5.17 µM

Q: With `Cn1nc(C(F)(F)F)c2cc(C(=O)Nc3ccc(C(F)(F)F)cc3)sc21` as the molecule, how does the Potency read?
A: inconclusive: 29.1 µM [cytotoxic, single point]

Q: For `O=C(Cc1ccc(F)cc1)Nc1nnc(SCC(=O)N2CCCCC2)s1`, which Potency is on record?
A: inconclusive: 14.6 µM [cytotoxic, single point]

Q: With `Cc1cc(Br)ccc1SCC(=O)OCC(O)=C(C#N)c1nc2ccccc2[nH]1` as the molecule, how does the Potency read?
A: inconclusive: 20.6 µM [cytotoxic, partial curve, poor fit]

Q: With `COc1ccc(-c2ccnc3nc(Sc4ncc(C(F)(F)F)cc4Cl)nn23)cc1` as the molecule, how does the Potency read?
A: active: 14.6 µM

Q: With `COc1ccc(-c2cc(-c3cccs3)nc3sc(C#N)c(N)c23)cc1` as the molecule, how does the Potency read?
A: inconclusive: 16.4 µM [cytotoxic, partial curve]

Q: Which Potency does the source give for `CCC1CCCCN1C(=O)c1cc(COc2ccc(-n3cncn3)cc2)on1` (stereo not drawn) here?
A: active: 13 µM

Q: With `O=C(Cn1nnc(-c2cccc(C(F)(F)F)c2)n1)NC1CCCC1` as the molecule, how does the “activity change, negative = cytotoxicity” value read?
A: inactive: -4.62%

Q: Which “activity change, negative = cytotoxicity” value does the source give for `CC(=O)[C@@]1(O)CC[C@H]2[C@@H]3CCC4=CC(=O)CC[C@]4(C)[C@H]3CC[C@@]21C` here?
A: inactive: -21.6%

Q: Which Potency does the source give for `CSc1nc(O)c(/C=C2\C=Nc3ccccc32)[nH]1` here?
A: inconclusive: 29.1 µM [cytotoxic, single point]

Q: Which Potency does the source give for `CCN(CC)c1ccc(C(=O)n2cnc3ccccc32)cc1` here?
A: inconclusive: 20.6 µM [cytotoxic, single point]

Q: Which “activity change, negative = cytotoxicity” value does the source give for `Cc1c(Cl)cccc1NC(=S)NCCC(C)C` here?
A: inactive: 2.49%

Q: For `CCCn1nc(NC(C)=O)c2cc3cccc(C)c3nc21`, which “activity change, negative = cytotoxicity” value is on record?
A: inactive: 0.328%

Q: With `CCOC(=O)c1ccc(-n2c(O)c(/C=N/NC(=O)C3COc4ccccc4O3)c3ccccc3c2=O)cc1` (stereo not drawn) as the molecule, how does the Potency read?
A: active: 16.4 µM

Q: For `Cc1cc(N2CCN(C)CC2)nc2ccc(NC(=S)N3CCN(c4cccc(Cl)c4)CC3)cc12`, which “activity change, negative = cytotoxicity” value is on record?
A: inactive: 9.55%

Q: For `CC(C)CCc1noc(CN(C)CC2CCN(Cc3ccccc3)CC2)n1`, which Potency is on record?
A: inconclusive: 5.17 µM [cytotoxic, partial curve, poor fit]

Q: With `c1ccc(-c2nnc(-c3ccccc3)c(-c3c[nH]c4ccccc34)n2)cc1` as the molecule, how does the “activity change, negative = cytotoxicity” value read?
A: inactive: -5.34%

Q: With `Cc1cccc(OCCC(=O)Nc2cc(S(=O)(=O)N3CCCCC3)ccc2N2CCOCC2)c1` as the molecule, how does the Potency read?
A: inconclusive: 8.2 µM [cytotoxic, partial curve, poor fit]

Q: For `O=C(NCc1ccccc1)c1ccc(CS(=O)(=O)c2c(Cl)cccc2Cl)o1`, which “activity change, negative = cytotoxicity” value is on record?
A: inactive: -4.08%

Q: Which Potency does the source give for `S=C(NCCc1ccccn1)Nc1cccc(Cl)c1` here?
A: active: 20.6 µM

Q: For `CCOc1ccc(NC(=S)N(Cc2ccc(N(C)C)cc2)Cc2ccco2)cc1`, which Potency is on record?
A: active: 14.6 µM

Q: For `COc1ccc(CNC(=O)c2cnn(-c3ccccc3)c2-n2cccc2)cc1OC`, which Potency is on record?
A: inconclusive: 29.1 µM [cytotoxic, single point]

Q: Which activity change, negative = cytotoxicity does the source give for `COc1ccc(Cn2c(C3CC3)nc3ccc(NC(=O)c4ccco4)cc3c2=O)cc1` here?
A: inconclusive: -39% [cytotoxic]

Q: Which Potency does the source give for `O=C(Nc1ccc(-c2csc(-c3ccccc3)n2)cc1)c1ccccc1Cl` here?
A: inconclusive: 11.6 µM [cytotoxic, partial curve, poor fit]

Q: For `Cc1cc(C)c2cc(C#N)c(NCCCNC(=O)c3cccnc3)nc2c1`, which “activity change, negative = cytotoxicity” value is on record?
A: inactive: -4.61%

Q: Which “activity change, negative = cytotoxicity” value does the source give for `CC1N(C)c2cc(NC(=O)c3ccco3)ccc2C1(C)C` (stereo not drawn) here?
A: inactive: -17.5%

Q: For `CNC(=S)Nc1ccc(C23CC4CC(CC(C4)C2)C3)cc1`, which “activity change, negative = cytotoxicity” value is on record?
A: inactive: -6.5%

Q: With `O=C(O)COc1ccc(C(NC(=O)c2c(F)cccc2F)NC(=O)c2c(F)cccc2F)cc1` as the molecule, how does the Potency read?
A: inconclusive: 0.0065 µM [rising, full curve, poor fit]

Q: With `Cc1cccc(C)c1NC(=O)C(CCc1ccccc1)n1c(=O)c(-c2ccccc2)nc2ccccc21` (stereo not drawn) as the molecule, how does the Potency read?
A: inconclusive: 9.2 µM [cytotoxic, partial curve, poor fit]

Q: For `CC(=O)c1cccc(N=Nc2c(-c3ccccc3)[nH]n(-c3ccccc3)c2=O)c1`, which Potency is on record?
A: inconclusive: 13 µM [cytotoxic, partial curve]

Q: With `NC(=O)c1ccc[n+](CC(=O)c2ccc(NC(=O)c3ccccc3)cc2)c1` as the molecule, how does the Potency read?
A: inconclusive: 29.1 µM [rising, single point]

Q: Which Potency does the source give for `COc1ccc(-n2nc3c(N4CCC(C(=O)NC5CCCCC5)CC4)nnc(C)c3c2C)cc1` here?
A: inconclusive: 29.1 µM [rising, single point]

Q: For `COc1ccc(C(=O)NC(=S)NCC2CCCO2)cc1` (stereo not drawn), which “activity change, negative = cytotoxicity” value is on record?
A: inactive: -25.9%

Q: Which “activity change, negative = cytotoxicity” value does the source give for `OC(c1cc(-c2ccc(Cl)cc2)nc2ccccc12)C1CCCCN1` (stereo not drawn) here?
A: inactive: 11.1%

Q: With `O=C1C=C(c2cccs2)C[C@H](c2ccccc2)[C@H]1n1nnc([N+](=O)[O-])n1` as the molecule, how does the Potency read?
A: inconclusive: 0.0291 µM [cytotoxic, full curve, poor fit]

Q: Which “activity change, negative = cytotoxicity” value does the source give for `COc1cccc(C(O)c2nc(-c3cncnc3)cs2)c1` (stereo not drawn) here?
A: inactive: 22.6%

Q: Which Potency does the source give for `CCCOc1ccc(Oc2ccc(S(=O)(=O)N3CCN(C)CC3)cn2)cc1` here?
A: inconclusive: 8.2 µM [cytotoxic, partial curve, poor fit]

Q: Which Potency does the source give for `NC(=O)c1ccccc1NC(=O)CCCc1ccccc1` here?
A: inconclusive: 29.1 µM [cytotoxic, single point]

Q: For `COc1cc(Nc2ccc(C(=O)O)cc2[N+](=O)[O-])cc(OC)c1`, which Potency is on record?
A: inconclusive: 29.1 µM [rising, single point]

Q: Which Potency does the source give for `O=C(COc1ccc(F)cc1)NC1CC1` here?
A: inconclusive: 32.6 µM [rising, single point]

Q: Which Potency does the source give for `O=C(NCc1ccccc1)c1ccccc1OCC(=O)N1CCCCC1` here?
A: inconclusive: 2.59 µM [cytotoxic, full curve]

Q: For `Cc1ccc(C(=O)Nc2ccc(N3CCN(C(=O)c4cccs4)CC3)cc2)c(Cl)c1`, which Potency is on record?
A: inconclusive: 10.3 µM [cytotoxic, partial curve]

Q: Which Potency does the source give for `CCOc1ccccc1N1CCN(S(=O)(=O)c2cccs2)CC1` here?
A: inconclusive: 25.9 µM [cytotoxic, single point]

Q: Which Potency does the source give for `C=C(C)CSc1cc(C)nc2c(-c3ccccc3)c(C)nn12` here?
A: active: 6.51 µM

Q: With `Nc1c(-c2nc(-c3ccccc3Cl)no2)nnn1-c1ccccc1C(F)(F)F` as the molecule, how does the “activity change, negative = cytotoxicity” value read?
A: inactive: 0.636%

Q: Which “activity change, negative = cytotoxicity” value does the source give for `COc1ccccc1NC(=O)N1CCN(c2nnc(C)c3c(C)n(-c4ccccc4)nc23)CC1` here?
A: inactive: -14.8%

Q: For `CN(Cc1ccc(Cl)cc1Cl)C(=O)c1cccc(S(=O)(=O)NCc2ccccc2)c1`, which Potency is on record?
A: active: 5.17 µM

Q: Which “activity change, negative = cytotoxicity” value does the source give for `CCCCn1c(SC(C)C(N)=O)nc2cc(C(=O)OC)ccc2c1=O` (stereo not drawn) here?
A: inactive: -22%

Q: For `CCOC(=O)C(NCc1ccc(OC)cc1)(NC(C)=O)C(F)(F)F` (stereo not drawn), which Potency is on record?
A: inconclusive: 9.2 µM [rising, partial curve]

Q: With `COc1ccc(C2CC(=O)C3=C(C2)Nc2ncnn2C3c2ccccc2C)c(OC)c1` (stereo not drawn) as the molecule, how does the Potency read?
A: inconclusive: 6.51 µM [cytotoxic, partial curve]

Q: Which Potency does the source give for `CCOC(=O)c1c(NC(=O)CSc2ncn[nH]2)sc(C)c1C` here?
A: inconclusive: 23.1 µM [cytotoxic, single point]

Q: With `O=C(NCc1ccc(F)cc1)C(c1ccccc1)N(C(=O)c1csnn1)c1ccccc1` (stereo not drawn) as the molecule, how does the Potency read?
A: inconclusive: 2.59 µM [cytotoxic, full curve]

Q: For `CCN(CC)S(=O)(=O)c1ccc(NC(=O)c2c(C)oc3ncnc(N4CCCCC4)c23)cc1`, which “activity change, negative = cytotoxicity” value is on record?
A: inactive: -3.38%

Q: With `CC(=O)N1CCN(S(=O)(=O)c2ccc3c(c2)OCCO3)CC1` as the molecule, how does the “activity change, negative = cytotoxicity” value read?
A: inactive: -10.1%

Q: For `Cc1nc([N+](=O)[O-])cn1CC(O)c1ccc2c(c1)OCCO2` (stereo not drawn), which “activity change, negative = cytotoxicity” value is on record?
A: inactive: 9.54%

Q: For `Cc1ccc(C)c(NS(=O)(=O)c2cc(C(=O)N3CCCC3)ccc2Cl)c1`, which Potency is on record?
A: inconclusive: 29.1 µM [cytotoxic, single point]

Q: For `O=C(Nc1ccc(C(=O)Nc2ccccc2Cl)cc1)c1cccnc1`, which Potency is on record?
A: inconclusive: 23.1 µM [rising, single point]

Q: For `CC(=Nc1ccccc1C)C1=C(O)CSC1=O`, which Potency is on record?
A: inconclusive: 23.1 µM [cytotoxic, single point]

Q: For `S=C(NC1CCCCC1)N1CCN(C2CCCCC2)CC1`, which Potency is on record?
A: inconclusive: 14.6 µM [cytotoxic, partial curve, poor fit]

Q: For `Cc1ccccc1N=Nc1c(C)[nH]n(C(N)=S)c1=O`, which Potency is on record?
A: inconclusive: 29.1 µM [cytotoxic, single point]

Q: For `Cc1c(C)c(C)c2[nH]c(=S)[nH]c2c1C`, which Potency is on record?
A: active: 3.66 µM

Q: With `O=S(=O)(c1ccc(NC(=S)Nc2ccc3c(c2)OCO3)cc1)N1CCOCC1` as the molecule, how does the Potency read?
A: inconclusive: 14.6 µM [cytotoxic, single point]

Q: With `CCOc1ncccc1C(=O)Nc1ccc(S(=O)(=O)N2CCCC2)cc1` as the molecule, how does the Potency read?
A: inconclusive: 29.1 µM [rising, single point]
